Experimental data taken from the supplement of paper PMC10849652.
Some of the results follow.

Chains of the proteins cited; added tags and fusions are not shown. Lines headed by an entry give the natural chain unless they say otherwise; changes in a name come on top.
UniProt P59817: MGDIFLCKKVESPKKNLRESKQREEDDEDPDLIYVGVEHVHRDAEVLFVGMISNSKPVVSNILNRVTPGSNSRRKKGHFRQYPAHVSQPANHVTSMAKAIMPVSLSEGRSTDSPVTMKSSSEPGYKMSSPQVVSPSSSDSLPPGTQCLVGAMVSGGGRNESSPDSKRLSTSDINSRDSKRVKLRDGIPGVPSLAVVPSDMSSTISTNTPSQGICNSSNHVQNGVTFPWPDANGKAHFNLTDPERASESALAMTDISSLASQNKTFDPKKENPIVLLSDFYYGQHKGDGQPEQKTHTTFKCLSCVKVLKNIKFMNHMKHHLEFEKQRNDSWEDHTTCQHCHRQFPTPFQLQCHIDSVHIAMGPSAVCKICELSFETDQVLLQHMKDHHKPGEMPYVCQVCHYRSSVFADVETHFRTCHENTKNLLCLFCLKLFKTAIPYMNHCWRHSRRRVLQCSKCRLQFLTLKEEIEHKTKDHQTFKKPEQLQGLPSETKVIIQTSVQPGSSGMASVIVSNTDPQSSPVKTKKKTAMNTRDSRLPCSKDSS
UniProt Q9H900: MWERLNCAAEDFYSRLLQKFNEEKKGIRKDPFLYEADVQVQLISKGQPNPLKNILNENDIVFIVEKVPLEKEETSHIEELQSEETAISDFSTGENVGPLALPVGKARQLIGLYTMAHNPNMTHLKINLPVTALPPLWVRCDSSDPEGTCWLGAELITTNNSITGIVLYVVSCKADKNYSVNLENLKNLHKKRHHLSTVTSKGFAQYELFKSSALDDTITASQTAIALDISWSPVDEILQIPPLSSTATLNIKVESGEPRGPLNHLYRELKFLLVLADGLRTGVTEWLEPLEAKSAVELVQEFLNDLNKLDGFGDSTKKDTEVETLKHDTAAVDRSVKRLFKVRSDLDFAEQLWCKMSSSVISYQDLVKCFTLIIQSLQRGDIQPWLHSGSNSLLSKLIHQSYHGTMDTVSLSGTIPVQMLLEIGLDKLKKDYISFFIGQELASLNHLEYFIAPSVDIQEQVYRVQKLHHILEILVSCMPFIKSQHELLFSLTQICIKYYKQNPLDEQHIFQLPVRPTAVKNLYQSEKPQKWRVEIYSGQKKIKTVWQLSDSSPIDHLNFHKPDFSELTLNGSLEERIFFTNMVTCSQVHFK
UniProt Q9UID6: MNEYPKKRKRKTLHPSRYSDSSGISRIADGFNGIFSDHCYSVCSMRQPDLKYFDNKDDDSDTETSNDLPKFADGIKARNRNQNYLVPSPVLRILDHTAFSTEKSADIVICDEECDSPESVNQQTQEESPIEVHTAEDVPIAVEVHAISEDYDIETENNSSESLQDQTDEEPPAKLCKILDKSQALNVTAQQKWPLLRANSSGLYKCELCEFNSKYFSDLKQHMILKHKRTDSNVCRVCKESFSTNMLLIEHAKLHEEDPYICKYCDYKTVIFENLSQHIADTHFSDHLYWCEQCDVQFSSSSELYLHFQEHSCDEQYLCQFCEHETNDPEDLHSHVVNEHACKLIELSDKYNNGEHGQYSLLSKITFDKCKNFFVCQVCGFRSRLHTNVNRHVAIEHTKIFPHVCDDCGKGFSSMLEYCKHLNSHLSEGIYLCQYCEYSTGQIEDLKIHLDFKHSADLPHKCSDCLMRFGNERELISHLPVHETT
UniProt Q15776: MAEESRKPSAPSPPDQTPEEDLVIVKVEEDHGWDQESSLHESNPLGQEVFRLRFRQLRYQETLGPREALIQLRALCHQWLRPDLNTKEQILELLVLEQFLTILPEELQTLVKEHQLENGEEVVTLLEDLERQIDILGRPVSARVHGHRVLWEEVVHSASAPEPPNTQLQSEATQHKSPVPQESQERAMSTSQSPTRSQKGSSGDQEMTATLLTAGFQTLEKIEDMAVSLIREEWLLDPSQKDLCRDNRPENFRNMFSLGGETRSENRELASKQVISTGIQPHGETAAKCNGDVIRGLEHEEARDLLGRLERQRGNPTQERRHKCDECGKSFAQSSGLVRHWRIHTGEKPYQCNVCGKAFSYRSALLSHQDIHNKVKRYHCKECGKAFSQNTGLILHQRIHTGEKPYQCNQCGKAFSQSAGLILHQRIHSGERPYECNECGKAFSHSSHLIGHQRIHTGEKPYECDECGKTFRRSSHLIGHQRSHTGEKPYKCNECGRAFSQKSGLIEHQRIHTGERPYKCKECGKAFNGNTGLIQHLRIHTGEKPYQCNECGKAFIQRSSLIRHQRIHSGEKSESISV
UniProt Q9ULJ6: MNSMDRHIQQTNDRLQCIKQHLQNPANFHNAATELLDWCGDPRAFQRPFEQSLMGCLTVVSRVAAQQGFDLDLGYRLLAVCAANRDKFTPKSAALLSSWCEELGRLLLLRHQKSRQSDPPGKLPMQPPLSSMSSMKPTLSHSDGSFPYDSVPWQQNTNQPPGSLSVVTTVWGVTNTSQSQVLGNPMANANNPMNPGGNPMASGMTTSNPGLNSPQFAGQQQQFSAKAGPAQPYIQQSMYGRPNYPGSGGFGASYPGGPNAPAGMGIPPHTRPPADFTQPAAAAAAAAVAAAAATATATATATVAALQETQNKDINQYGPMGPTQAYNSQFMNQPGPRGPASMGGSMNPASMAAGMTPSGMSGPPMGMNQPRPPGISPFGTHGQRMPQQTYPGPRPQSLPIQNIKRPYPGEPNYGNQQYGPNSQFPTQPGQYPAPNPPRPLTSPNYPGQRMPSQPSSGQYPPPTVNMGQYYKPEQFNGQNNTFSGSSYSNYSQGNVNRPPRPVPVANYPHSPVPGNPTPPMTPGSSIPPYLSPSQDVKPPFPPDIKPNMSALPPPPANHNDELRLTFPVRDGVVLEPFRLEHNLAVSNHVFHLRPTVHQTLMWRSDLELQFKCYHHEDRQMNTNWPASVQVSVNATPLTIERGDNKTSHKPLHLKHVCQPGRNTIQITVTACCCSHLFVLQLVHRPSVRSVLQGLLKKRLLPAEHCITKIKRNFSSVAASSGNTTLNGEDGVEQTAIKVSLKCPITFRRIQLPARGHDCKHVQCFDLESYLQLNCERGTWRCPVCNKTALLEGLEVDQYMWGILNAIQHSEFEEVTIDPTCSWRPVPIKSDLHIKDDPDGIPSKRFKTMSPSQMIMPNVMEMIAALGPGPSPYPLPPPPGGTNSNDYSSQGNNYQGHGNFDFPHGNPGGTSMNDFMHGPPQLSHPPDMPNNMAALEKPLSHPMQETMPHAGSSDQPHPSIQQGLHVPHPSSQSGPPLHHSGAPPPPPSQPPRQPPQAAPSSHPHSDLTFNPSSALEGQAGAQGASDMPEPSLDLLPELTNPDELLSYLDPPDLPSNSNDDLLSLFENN
UniProt Q8NF64: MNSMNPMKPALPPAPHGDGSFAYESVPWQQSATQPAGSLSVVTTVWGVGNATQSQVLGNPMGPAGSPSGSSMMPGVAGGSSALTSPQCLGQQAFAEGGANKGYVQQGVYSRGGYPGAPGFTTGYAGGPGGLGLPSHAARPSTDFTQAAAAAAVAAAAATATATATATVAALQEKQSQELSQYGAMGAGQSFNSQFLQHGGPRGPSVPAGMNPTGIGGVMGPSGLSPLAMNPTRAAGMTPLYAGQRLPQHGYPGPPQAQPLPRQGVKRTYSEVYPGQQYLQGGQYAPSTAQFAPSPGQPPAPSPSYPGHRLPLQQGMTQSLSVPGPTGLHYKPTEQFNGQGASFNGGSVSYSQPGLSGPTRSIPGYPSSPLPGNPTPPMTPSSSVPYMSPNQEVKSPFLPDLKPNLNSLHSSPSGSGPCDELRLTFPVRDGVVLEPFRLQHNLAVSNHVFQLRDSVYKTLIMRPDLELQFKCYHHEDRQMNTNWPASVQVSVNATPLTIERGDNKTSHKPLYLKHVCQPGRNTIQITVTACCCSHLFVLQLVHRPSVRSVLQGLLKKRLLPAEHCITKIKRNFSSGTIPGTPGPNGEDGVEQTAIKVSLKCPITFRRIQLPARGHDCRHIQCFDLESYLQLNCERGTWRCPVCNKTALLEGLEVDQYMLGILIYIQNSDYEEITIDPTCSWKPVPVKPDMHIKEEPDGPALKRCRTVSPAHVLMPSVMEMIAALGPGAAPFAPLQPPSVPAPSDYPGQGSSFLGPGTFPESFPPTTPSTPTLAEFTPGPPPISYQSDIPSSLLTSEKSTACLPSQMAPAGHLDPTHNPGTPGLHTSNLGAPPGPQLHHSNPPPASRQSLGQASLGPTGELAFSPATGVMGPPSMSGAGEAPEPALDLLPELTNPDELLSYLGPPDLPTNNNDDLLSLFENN
UniProt P17028: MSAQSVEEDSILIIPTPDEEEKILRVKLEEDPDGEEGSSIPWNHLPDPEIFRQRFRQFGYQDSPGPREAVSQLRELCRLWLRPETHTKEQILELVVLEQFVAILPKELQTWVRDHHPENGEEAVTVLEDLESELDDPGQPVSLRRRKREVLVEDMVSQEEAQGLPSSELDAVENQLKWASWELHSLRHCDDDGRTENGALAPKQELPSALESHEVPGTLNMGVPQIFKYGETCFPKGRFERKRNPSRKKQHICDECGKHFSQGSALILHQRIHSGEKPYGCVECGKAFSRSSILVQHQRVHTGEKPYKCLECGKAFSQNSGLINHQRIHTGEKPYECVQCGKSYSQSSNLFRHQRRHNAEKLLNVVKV
UniProt O43670: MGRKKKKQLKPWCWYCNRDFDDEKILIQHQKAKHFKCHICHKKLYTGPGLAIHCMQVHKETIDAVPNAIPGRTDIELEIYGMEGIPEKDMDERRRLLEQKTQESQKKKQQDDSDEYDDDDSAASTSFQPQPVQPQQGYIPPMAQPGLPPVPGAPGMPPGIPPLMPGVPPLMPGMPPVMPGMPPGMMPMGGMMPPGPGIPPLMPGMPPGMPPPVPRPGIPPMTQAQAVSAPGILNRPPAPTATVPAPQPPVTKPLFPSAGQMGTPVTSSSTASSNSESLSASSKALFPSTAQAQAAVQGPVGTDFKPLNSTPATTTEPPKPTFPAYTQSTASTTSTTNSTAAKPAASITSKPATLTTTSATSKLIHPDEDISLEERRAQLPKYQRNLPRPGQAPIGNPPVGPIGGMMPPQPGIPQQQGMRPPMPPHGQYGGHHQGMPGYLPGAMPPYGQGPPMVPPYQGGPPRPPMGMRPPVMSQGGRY
UniProt P17098: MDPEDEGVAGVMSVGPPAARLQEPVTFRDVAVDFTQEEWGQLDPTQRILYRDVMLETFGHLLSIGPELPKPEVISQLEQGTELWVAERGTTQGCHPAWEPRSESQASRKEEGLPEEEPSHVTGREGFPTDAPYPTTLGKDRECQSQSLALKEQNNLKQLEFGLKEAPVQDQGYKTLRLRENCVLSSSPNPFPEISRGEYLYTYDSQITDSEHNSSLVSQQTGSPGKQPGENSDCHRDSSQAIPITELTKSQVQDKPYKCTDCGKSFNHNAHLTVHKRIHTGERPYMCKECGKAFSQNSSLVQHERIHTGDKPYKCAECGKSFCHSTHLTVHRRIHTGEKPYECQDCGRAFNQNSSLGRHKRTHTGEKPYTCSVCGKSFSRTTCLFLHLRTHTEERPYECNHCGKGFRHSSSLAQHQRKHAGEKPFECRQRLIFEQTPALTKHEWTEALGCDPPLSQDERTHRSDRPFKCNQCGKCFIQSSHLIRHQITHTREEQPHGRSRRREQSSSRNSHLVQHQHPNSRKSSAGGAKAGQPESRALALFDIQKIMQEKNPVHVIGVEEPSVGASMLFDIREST
UniProt Q5T7W0: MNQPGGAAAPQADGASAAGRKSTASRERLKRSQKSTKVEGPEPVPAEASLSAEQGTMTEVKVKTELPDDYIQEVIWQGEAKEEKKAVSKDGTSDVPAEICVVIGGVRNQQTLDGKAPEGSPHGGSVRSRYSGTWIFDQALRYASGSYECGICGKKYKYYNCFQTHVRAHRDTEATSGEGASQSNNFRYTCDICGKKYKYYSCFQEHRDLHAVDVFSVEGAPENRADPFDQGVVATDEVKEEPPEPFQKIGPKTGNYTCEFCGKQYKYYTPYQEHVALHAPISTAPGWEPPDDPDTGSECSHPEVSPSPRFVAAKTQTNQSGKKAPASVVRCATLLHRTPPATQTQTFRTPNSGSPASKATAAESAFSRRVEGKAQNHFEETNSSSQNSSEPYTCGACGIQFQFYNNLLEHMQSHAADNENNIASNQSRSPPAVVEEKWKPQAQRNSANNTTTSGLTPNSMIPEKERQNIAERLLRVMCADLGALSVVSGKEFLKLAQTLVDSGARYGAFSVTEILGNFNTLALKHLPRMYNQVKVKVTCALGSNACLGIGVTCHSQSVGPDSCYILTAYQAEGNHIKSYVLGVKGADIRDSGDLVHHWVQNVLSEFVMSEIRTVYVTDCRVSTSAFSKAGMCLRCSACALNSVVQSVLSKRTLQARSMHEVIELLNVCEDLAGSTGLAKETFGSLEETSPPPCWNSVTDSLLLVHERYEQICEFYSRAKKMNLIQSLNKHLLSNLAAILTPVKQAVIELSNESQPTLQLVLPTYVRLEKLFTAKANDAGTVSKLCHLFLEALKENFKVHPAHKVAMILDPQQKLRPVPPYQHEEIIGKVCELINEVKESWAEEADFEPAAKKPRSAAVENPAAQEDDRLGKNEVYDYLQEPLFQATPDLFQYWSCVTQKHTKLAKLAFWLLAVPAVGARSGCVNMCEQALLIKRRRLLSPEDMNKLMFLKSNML

Compound: Cc1nc(Nc2ncc(C(=O)Nc3c(C)cccc3Cl)s2)cc(N2CCN(CCO)CC2)n1 [dasatinib]
Assay: log2 fold change, soluble protein after heating vs DMSO (PISA); higher = thermal stabilisation; K562 lysate, 10 uM; active = over 0.2 and 3.5 SD of the protein, either way, in both replicates (recomputed)
Outline: (§1)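 To prepare the extract, K562 pellets were dounce-homogenised in PBS pH 7.4 with 1 mM MgCl2, giving crude material at 1 mg/mL protein. This was treated with 10 μM compound for 30 min, then heated in aliquots for 3 min over 48°C-58°C before pooling and addition of NP-40 to 0.5% at 4°C. Centrifugation at 21,000xg for 90 min left soluble protein in the supernatant, which TMTpro 16plex LC-MS/MS quantified with equalised channel sums. Results are log-two fold changes in thermal stability compared with solvent controls, from duplicates.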

log2 fold change, inactive:
ZNF280A (UniProt P59817) -0.148
ZZZ3 (UniProt Q8IYH5) 0.016
ZNF143 (UniProt P52747) 0.013
ZNRD2 (UniProt O60232) 0.01
ZNF706 (UniProt Q9Y5V0) -0.102
ZMAT2 (UniProt Q96NC0) 0.022
ZNRD2 (UniProt G3V1B8) 0.087
ZNF148 (UniProt Q9UQR1) 0.121
ZWILCH (UniProt Q9H900) -0.033
ZNF638 (UniProt Q14966) -0.021
ZMYND8 isoform 19 (UniProt Q9ULU4) -0.019
ZNF622 (UniProt Q969S3) -0.018
ZNF787 (UniProt Q6DD87) -0.04
ZNF639 (UniProt Q9UID6) -0.009
hCG_1984214 (UniProt I3L0E3) -0.033
ZZEF1 (UniProt O43149) -0.018
ZKSCAN8 (UniProt Q15776) -0.096
ZMIZ1 (UniProt Q9ULJ6) -0.002
ZMIZ2 (UniProt Q8NF64) -0.054
ZNF24 (UniProt P17028) 0.038
ZNF672 (UniProt Q499Z4) 0.232
ZNF609 (UniProt O15014) -0.014
ZNF511 (UniProt Q8NB15) -0.136
ZNF207 isoform 4 (UniProt O43670) 0.008
ZNF8 (UniProt P17098) -0.072
ZSWIM8 isoform 4 (UniProt A7E2V4) 0.085
ZNF845 (UniProt Q96IR2) -0.038
ZNF644 (UniProt Q9H582) 0.066
ZNF618 (UniProt Q5T7W0) -0.002
ZHX1 (UniProt Q9UKY1) 0
ZNHIT6 (UniProt Q9NWK9) -0.037
ZMYM4 (UniProt Q5VZL5) -0.001
ZMYM2 (UniProt Q9UBW7) -0.023
ZMYM3 (UniProt Q14202) -0.056
ZNF318 (UniProt Q5VUA4) -0.104

Compound: Cc1ncc(-c2ccnc(Nc3ccc(S(C)(=O)=O)cc3)n2)n1C(C)C
Assay: as above
Outline: as §1

log2 fold change, inactive:
ZNF280A (UniProt P59817) 0.024
ZZZ3 (UniProt Q8IYH5) 0.132
ZNF143 (UniProt P52747) -0.1
ZNRD2 (UniProt O60232) 0.044
ZNF706 (UniProt Q9Y5V0) -0.019
ZMAT2 (UniProt Q96NC0) 0.027
ZNRD2 (UniProt G3V1B8) 0.275
ZNF148 (UniProt Q9UQR1) -0.109
ZWILCH (UniProt Q9H900) 0
ZNF638 (UniProt Q14966) 0.012
ZMYND8 isoform 19 (UniProt Q9ULU4) 0.022
ZNF622 (UniProt Q969S3) 0.002
ZNF787 (UniProt Q6DD87) 0.17
ZNF639 (UniProt Q9UID6) -0.02
hCG_1984214 (UniProt I3L0E3) 0.04
ZZEF1 (UniProt O43149) 0.015
ZKSCAN8 (UniProt Q15776) -0.03
ZMIZ1 (UniProt Q9ULJ6) -0.011
ZMIZ2 (UniProt Q8NF64) -0.013
ZNF24 (UniProt P17028) 0.098
ZNF672 (UniProt Q499Z4) 0.054
ZNF609 (UniProt O15014) 0.001
ZNF511 (UniProt Q8NB15) 0.041
ZNF207 isoform 4 (UniProt O43670) 0.024
ZNF8 (UniProt P17098) 0.185
ZSWIM8 isoform 4 (UniProt A7E2V4) 0.07
ZNF845 (UniProt Q96IR2) -0.053
ZNF644 (UniProt Q9H582) 0.017
ZNF618 (UniProt Q5T7W0) 0.025
ZHX1 (UniProt Q9UKY1) 0.06
ZNHIT6 (UniProt Q9NWK9) -0.005
ZMYM4 (UniProt Q5VZL5) -0.005
ZMYM2 (UniProt Q9UBW7) -0.007
ZMYM3 (UniProt Q14202) 0.003
ZNF318 (UniProt Q5VUA4) -0.034
